The text below walks through data of PMC4023886.

Chains of the proteins cited; added tags and fusions are not shown.
UniProt P29590: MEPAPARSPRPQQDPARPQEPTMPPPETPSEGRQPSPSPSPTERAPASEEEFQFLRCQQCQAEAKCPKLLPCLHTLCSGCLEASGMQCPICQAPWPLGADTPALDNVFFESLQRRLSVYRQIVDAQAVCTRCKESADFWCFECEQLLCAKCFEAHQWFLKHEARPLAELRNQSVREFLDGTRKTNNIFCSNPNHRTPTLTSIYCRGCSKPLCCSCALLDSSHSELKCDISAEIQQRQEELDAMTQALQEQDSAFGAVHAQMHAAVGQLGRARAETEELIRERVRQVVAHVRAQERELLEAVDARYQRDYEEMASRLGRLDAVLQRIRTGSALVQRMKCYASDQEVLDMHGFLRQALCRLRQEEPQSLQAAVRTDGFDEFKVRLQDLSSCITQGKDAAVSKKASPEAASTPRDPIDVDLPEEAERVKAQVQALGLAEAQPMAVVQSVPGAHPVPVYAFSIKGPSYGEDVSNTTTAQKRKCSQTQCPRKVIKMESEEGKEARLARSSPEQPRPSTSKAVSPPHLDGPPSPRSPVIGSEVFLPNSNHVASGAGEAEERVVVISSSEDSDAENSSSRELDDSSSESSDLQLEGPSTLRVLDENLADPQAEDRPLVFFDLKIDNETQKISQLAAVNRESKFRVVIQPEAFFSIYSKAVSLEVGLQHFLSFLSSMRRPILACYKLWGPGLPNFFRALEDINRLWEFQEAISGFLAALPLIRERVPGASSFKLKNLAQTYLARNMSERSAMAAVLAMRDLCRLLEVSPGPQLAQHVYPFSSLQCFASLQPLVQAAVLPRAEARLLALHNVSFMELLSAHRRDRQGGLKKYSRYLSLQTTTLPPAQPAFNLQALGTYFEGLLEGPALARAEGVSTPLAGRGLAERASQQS
UniProt Q16665: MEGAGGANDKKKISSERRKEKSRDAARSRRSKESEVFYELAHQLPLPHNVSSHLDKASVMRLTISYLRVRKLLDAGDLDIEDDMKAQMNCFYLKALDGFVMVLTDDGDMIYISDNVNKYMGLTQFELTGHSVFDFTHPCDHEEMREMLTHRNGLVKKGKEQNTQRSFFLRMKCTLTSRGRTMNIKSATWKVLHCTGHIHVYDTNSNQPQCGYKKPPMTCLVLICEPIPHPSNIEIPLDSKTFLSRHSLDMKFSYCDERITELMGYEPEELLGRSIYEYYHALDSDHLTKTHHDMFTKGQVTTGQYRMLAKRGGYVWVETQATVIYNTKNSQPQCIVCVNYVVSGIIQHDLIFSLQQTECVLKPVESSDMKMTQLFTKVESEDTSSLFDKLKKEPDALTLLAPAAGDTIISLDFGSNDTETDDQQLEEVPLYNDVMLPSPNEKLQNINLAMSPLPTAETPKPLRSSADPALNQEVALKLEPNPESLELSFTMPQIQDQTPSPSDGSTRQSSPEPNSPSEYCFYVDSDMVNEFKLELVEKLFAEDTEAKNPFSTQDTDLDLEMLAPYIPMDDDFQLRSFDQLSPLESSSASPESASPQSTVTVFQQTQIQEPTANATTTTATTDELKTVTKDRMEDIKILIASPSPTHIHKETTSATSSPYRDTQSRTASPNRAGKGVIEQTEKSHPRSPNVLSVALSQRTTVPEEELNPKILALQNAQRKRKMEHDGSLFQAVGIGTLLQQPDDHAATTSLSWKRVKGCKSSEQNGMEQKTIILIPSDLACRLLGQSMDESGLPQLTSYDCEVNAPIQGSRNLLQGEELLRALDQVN

Results are given in words; binding and its absence hold for the method and conditions named. In cells and extracts the contact can be indirect. Some entries that bind do so weakly or less than the wild type.

The target of the assay is PML, endogenous in NB4 cells (human (endogenous in NB4)) (UniProt P29590). Nature of the assay: co-IP; NB4 cells treated with CoCl2 (100 μM, 24 h), endogenous proteins; mild cross-linking with 0.4% formaldehyde (7 min at RT); lysis in CO-IP buffer (10 mM NaCl, 10 mM Tris-HCl pH 7.5, 5 mM MgCl2, 0.5% CHAPS), brief sonication; total lysates immunoprecipitated with PML antibody PG-M3.

With “endogenous HIF-1α in NB4 cells (from UniProt Q16665 1-826)”, the binding entry is given as “binds”.
